US20150074844A1
Results are given in words; binding and its absence hold for the method and conditions named. In cells and extracts the contact can be indirect. A yes stands for co-enrichment or nearness to the bait. Other partners may have been found. Where a sequence is shown, tags or fusion partners need not be part of it.

Key:
Assay in all cases: immunoprecipitation from floral organs of transgenic plants and mass spectrometry
[1] = target: T1, PP2CA (endogenous, from Arabidopsis floral organs) (Arabidopsis) (UniProt P49598)
T1 sequence (looked up): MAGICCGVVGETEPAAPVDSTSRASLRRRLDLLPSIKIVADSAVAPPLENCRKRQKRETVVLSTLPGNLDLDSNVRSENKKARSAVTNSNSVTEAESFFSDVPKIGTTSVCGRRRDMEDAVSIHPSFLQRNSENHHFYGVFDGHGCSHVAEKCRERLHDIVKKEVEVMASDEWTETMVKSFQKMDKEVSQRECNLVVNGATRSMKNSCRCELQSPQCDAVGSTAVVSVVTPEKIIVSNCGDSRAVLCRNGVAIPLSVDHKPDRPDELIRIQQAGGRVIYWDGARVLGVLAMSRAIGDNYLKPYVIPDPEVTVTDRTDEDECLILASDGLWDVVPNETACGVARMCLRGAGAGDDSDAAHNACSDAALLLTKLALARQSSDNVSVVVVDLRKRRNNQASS

[2] = target: T2, HAI1 (endogenous, from Arabidopsis floral organs) (Arabidopsis) (UniProt Q9FIF5)
T2 sequence (looked up): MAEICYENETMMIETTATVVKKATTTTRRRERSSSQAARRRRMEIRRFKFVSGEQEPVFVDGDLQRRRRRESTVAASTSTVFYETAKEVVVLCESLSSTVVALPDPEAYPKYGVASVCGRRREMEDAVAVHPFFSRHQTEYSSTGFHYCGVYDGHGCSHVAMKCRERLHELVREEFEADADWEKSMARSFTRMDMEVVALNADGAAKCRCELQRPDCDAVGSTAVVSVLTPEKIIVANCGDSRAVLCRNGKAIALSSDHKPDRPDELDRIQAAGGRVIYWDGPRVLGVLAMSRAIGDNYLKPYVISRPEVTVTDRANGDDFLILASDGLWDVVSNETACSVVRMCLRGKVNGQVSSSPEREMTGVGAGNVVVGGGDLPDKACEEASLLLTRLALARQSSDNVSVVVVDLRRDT

[3] = target: T3, PYL2 (endogenous, from Arabidopsis floral organs) (Arabidopsis thaliana) (UniProt O80992)
T3 sequence: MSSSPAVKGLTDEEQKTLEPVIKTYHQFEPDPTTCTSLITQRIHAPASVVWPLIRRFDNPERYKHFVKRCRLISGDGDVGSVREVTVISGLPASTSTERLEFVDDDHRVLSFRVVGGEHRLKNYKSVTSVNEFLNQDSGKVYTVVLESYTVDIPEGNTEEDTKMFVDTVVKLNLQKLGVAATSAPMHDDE

binding [1]: binds
binding [2]: binds
binding [3]: binds
B1: PYL13-HA-YFP (protein, not shown: large carriers)
chain: MESSKQKRCRSSVVETIEAPLPLVWSILRSFDKPQAYQRFVKSCTMRSGGGGGKGGEGKGSVRDVTLVSGFPADFSTERLEELDDESHVMVVSIIGGNHRLVNYKSKTKVVASPEDMAKKTVVVESYVVDVPEGTSEEDTIFFVDNIIRYNLTSLAKLTKKMMK
